# Assay results taken from the supplement of paper PMC3334620.
# The full ranking holds about 33,000 sequences; the median of “E-score (-0.5 to 0.5)” is about -0.0034, and the highest 2% start at about 0.25. The list shows a part of the results.
# Target: T1, Yap3 (UniProt P38749)
# T1 sequence: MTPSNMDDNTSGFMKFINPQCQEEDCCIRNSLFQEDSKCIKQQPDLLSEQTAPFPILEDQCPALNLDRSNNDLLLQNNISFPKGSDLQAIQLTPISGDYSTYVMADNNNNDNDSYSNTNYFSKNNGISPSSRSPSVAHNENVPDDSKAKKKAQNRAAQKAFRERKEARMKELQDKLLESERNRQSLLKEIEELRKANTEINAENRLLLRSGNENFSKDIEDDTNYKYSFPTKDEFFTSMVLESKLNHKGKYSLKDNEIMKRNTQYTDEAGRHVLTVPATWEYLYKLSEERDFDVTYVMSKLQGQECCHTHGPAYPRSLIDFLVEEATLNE
# Experiment: PBM E-score (8-mer binding enrichment) (E-score (-0.5 to 0.5)); higher = stronger / more preferred TF binding
# Conditions: protein concentration: 100 nM; construct: GST-full length
# Procedure: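 Universal 'all 10-mer' protein binding microarrays (Agilent AMADID 015681) probed with GST-tagged S. cerevisiae TFs (full-length or DBD) made by in vitro transcription/translation (PURExpress), about 100-200 nM. Bound TF was detected with fluorescent anti-GST. Each ungapped 8-mer (which stands for itself and its reverse complement) is scored by the PBM enrichment score (E-score), a modified Wilcoxon-Mann-Whitney statistic from -0.5 to +0.5, computed with the Universal PBM Analysis Suite. Scale: above 0.35 generally sequence-specific binding.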
row,Sequence,PBM E-score
1,ATTGCTGG,-0.0977
2,TATCCACA,0.142
3,CTATGGAC,0.0426
4,ACGTCTTG,-0.0559
5,AGTTTCCA,-0.0635
6,AACCCTGC,-0.128
7,ATGTGTCA,0.161
8,ACAATCCT,0.00872
9,CACATATG,-0.0126
10,CTGGCTAC,-0.089
11,CGGGCTGC,-0.254
12,GATTTATA,0.239
13,AATAATCC,0.109
14,ACCCGCCC,-0.0921
15,AACTCTGG,-0.0706
16,GTACCTAA,-0.0819
17,CGTAGCTA,-0.05
18,CATTCTAC,0.0585
19,CTTAGAAG,-0.0666
20,AACGACTT,-0.144
21,AGCGTATG,-0.0269
22,GACTCCTA,-0.0436
23,AGCATCGC,-0.22
24,AAACGTTG,-0.0223
25,CCCGGGTA,-0.103

row,Sequence,PBM E-score
1,CAGTCATG,-0.152
2,CAATACTA,0.0409
3,GTAGGCAA,0.00287
4,AGAGGCTA,-0.0845
5,AACATACA,0.128
6,CGGCTTAA,0.168
7,ACCGTGCG,-0.0516
8,GTTCCTCA,-0.18
9,AGCAATAG,-0.183
10,CCCCACAG,-0.21
11,GATCTACC,0.00102
12,ACGTCGTG,0.186
13,CACGGTAG,-0.0447
14,ACCACTTG,-0.141
15,CAAGGATA,0.00319
16,CGCACTAC,-0.00213
17,CCAGCTTC,-0.117
18,CCCCTACG,-0.322
19,CATTATGA,0.157
20,CACTAGTG,0.0852
21,CCCAAAAC,0.0651
22,AGCCCCTC,-0.159
23,GTCGTTAA,-0.0202
24,AGACGGGG,-0.124
25,GGCGAAGA,-0.231

row,Sequence,PBM E-score
1,TAATTATA,0.285
2,CTGAATAA,0.195
3,ACTATTGA,0.122
4,GAGTATGA,0.0893
5,AGTGGATA,0.0869
6,TCCGATAA,-0.0509
7,ATCGCTTA,0.0663
8,GACGGATA,0.134
9,AGCACATC,0.00998
10,AGATTCGG,0.149
11,CGGGGGAG,-0.331
12,TGCACTAA,0.208
13,AGAGGTAC,-0.248
14,TCTGCGCA,-0.0675
15,CTCATAAG,0.0483
16,ACCAGGAG,-0.207
17,ACAAGACC,-0.152
18,AAGTAGAA,0.0999
19,CTCGAAGC,-0.173
20,CGAAATAG,-0.116
21,ATATAGTA,0.264
22,GCCGCGAA,-0.114
23,CTAATAGA,0.0995
24,GGAACGAC,-0.133
25,GACGAAGC,-0.116

row,Sequence,PBM E-score
1,CGTCCGAC,-0.155
2,CATCCCCC,-0.33
3,ACATGAGT,-0.0432
4,GATTTTAC,0.161
5,ACTTGAGC,-0.0924
6,GTCGTGGA,-0.0143
7,AATTCCTC,-0.0469
8,CCTATATC,0.0538
9,AATAGACT,0.143
10,ACTCTCCC,0.0233
11,ATCGGGGC,-0.236
12,ACCAAGGA,0.0109
13,CAGTACTA,0.0778
14,CCGTGTAC,0.124
15,ATAACCCC,-0.121
16,GATCTTGC,0.154
17,CGACCAGA,-0.0156
18,ATCAGTTG,0.132
19,CTTCCATC,-0.0889
20,GACATAGC,0.05
21,AAGCGCGA,0.0646
22,GAGCGATC,0.0216
23,TCGGCAAA,-0.0204
24,ATCGCACG,-0.113
25,AATATCCA,0.165

row,Sequence,PBM E-score
1,AGTATGAC,0.122
2,TCACCCCA,0.0771
3,AGGTTGGG,-0.103
4,AATCCACA,0.075
5,CCGTCAAC,-0.0784
6,CACCCCAG,-0.184
7,AAAATGTG,0.121
8,CCGTGATA,-0.0839
9,GCGATGAC,0.0826
10,GAGTGGAC,-0.0806
11,ATATAGAT,0.104
12,AACCCACG,-0.0739
13,GTCGTGTA,0.0599
14,CACTCTTC,-0.0158
15,ATCGGCAT,0.108
16,TAGCGTCA,-0.0474
17,CCGGCCGA,-0.214
18,CCATAGCC,-0.12
19,CAGCCCCG,-0.213
20,CGACAGCC,-0.0758
21,AAGACATC,-0.141
22,CACGCAGG,-0.0824
23,GTTAATGA,0.133
24,GGAAGATA,0.185
25,CGCACCTC,-0.186

# Given as tab-separated lines: part of the list above.
row	Sequence	PBM E-score
23	CTAATAGA	0.0995
24	GGAACGAC	-0.133
25	GACGAAGC	-0.116
1	CGTCCGAC	-0.155
2	CATCCCCC	-0.33
3	ACATGAGT	-0.0432
4	GATTTTAC	0.161
5	ACTTGAGC	-0.0924
6	GTCGTGGA	-0.0143
7	AATTCCTC	-0.0469
8	CCTATATC	0.0538
9	AATAGACT	0.143
10	ACTCTCCC	0.0233
11	ATCGGGGC	-0.236
12	ACCAAGGA	0.0109
13	CAGTACTA	0.0778
14	CCGTGTAC	0.124
16	GATCTTGC	0.154
17	CGACCAGA	-0.0156
18	ATCAGTTG	0.132
19	CTTCCATC	-0.0889
20	GACATAGC	0.05
21	AAGCGCGA	0.0646
22	GAGCGATC	0.0216
23	TCGGCAAA	-0.0204
24	ATCGCACG	-0.113
25	AATATCCA	0.165
1	AGTATGAC	0.122
2	TCACCCCA	0.0771
3	AGGTTGGG	-0.103
4	AATCCACA	0.075
5	CCGTCAAC	-0.0784
6	CACCCCAG	-0.184
7	AAAATGTG	0.121
8	CCGTGATA	-0.0839
9	GCGATGAC	0.0826
10	GAGTGGAC	-0.0806
11	ATATAGAT	0.104
12	AACCCACG	-0.0739
13	GTCGTGTA	0.0599
14	CACTCTTC	-0.0158
15	ATCGGCAT	0.108
16	TAGCGTCA	-0.0474
17	CCGGCCGA	-0.214
18	CCATAGCC	-0.12
19	CAGCCCCG	-0.213
20	CGACAGCC	-0.0758
21	AAGACATC	-0.141
24	GGAAGATA	0.185
25	CGCACCTC	-0.186

# (next part)

row,Sequence,PBM E-score
1,AAGCTAGA,-0.00382
2,ATAGCTGA,-0.0565
3,GATTTCCA,0.0257
4,AAACCAGG,0.156
5,ACCCTCAC,-0.158
6,GTAGCAAA,0.185
7,CATGTTAC,0.149
8,CAGTTGCA,-0.13
9,GTAGCGAC,-0.112
10,GCATTGAA,0.0402
11,CGACATTA,0.203
12,GTAGCCTA,-0.236
13,CGTAAAAC,-0.0349
14,ACTCTGAC,-0.138
15,AGCCAGAC,-0.0513
16,AGGTAGTC,-0.0788
17,GGCCTAGA,-0.0411
18,ATGATTTC,0.24
19,ATCCTGGA,-0.0134
20,GGTCCATA,-0.143
21,CCCCCAGG,-0.397
22,GTGAAACA,0.113
23,GGGGGATA,-0.0397
24,AAATGTCC,-0.119
25,AAATTCCC,-0.164

row,Sequence,PBM E-score
1,AATGGCGT,0.015
2,GCGCTACA,0.0265
3,AAGTAAGA,0.11
4,AAGGCACG,-0.0196
5,CGTGTCCC,-0.106
6,GGCCAGGA,-0.0419
7,ACTCATCG,0.0599
8,GACAGGAC,-0.128
9,ACACCCAT,0.127
10,CATCTTTC,0.0657
11,AACTTACA,0.101
12,CATAAATG,-0.0565
13,GCTAACGA,0.104
14,CTTAGCGA,-0.0129
15,GCGTTGCC,-0.0698
16,AATGAGTC,0.0812
17,CAATGTCG,0.142
18,ACTTACAC,-0.0455
19,GACCATTA,0.0847
20,AGCGCCTG,-0.167
21,TACACAGA,-0.0403
22,CCTTACAC,0.0329
